In the supplement of paper PMC10735217:
Some of the results follow. Repeats in this data set agree poorly, so a single value says little.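 Human kidney-derived cells stably carry a construct in which eight TEAD-binding elements drive luciferase, measured by luminescence in a drug-repurposing library screen. A hit is any compound whose signal exceeds the plate mean by more than five robust Z scores.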

Tested on: HEK293A TEAD-LUC reporter
Assay: TEAD-luciferase reporter activity (YAP activation), robust Z score vs plate; higher = stronger YAP/TEAD activation
Settings: 24 h

Measured: TEAD-luciferase reporter activity

C=C(C)[C@]12C[C@@H](C)[C@@]34O[C@](Cc5ccccc5)(O[C@@H]1[C@@H]3C=C(COC(=O)Cc1ccc(O)c(OC)c1)C[C@]1(O)C(=O)C(C)=C[C@@H]41)O2 [Resiniferatoxin]
active: compound concentration: 200 nM 18.9 | compound concentration: 2 uM 14.3 | compound concentration: 10 uM 14.6
